# The supplement of paper PMC3334620
# The full ranking holds about 33,000 sequences; the median of “E-score (-0.5 to 0.5)” is about -0.015, and the highest 2% start at about 0.3. The list shows a part of the results.
# Target: T1, Abf1 (UniProt P14164)
# T1 sequence: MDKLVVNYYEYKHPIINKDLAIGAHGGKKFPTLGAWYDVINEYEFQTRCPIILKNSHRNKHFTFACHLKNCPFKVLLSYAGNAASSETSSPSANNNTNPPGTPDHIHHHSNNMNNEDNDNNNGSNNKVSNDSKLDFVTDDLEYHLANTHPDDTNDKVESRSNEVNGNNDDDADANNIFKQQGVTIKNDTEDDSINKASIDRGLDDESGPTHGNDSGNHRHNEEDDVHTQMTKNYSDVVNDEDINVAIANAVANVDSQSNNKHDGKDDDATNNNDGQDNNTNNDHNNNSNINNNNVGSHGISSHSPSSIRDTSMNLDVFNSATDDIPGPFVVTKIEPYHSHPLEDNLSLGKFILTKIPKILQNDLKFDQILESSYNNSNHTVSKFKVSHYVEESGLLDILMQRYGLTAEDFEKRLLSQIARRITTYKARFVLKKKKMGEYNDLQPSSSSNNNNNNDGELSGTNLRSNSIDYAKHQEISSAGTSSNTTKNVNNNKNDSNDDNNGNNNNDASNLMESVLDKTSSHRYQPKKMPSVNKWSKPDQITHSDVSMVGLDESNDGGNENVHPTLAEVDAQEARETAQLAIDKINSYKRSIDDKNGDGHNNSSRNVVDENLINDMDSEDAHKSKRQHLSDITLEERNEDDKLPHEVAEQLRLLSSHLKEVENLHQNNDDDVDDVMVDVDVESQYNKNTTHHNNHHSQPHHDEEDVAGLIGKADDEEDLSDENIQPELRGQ
# Assay: PBM E-score (8-mer binding enrichment) (E-score (-0.5 to 0.5)); higher = stronger / more preferred TF binding
# Conditions: protein concentration: 200 nM; construct: GST-full length
# Summary of the method: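 Yeast transcription factors, full-length or as DNA-binding domains, were expressed with a GST tag using PURExpress in vitro transcription/translation. At about 100-200 nM they were applied to universal all-10-mer Agilent arrays, double-stranded by primer extension on fresh or once-stripped slides. Fluorescent anti-GST detected bound protein, and masliner normalised the scans. E-scores for ungapped eight-base words, pooled with reverse complements, came from the Universal PBM Analysis Suite.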
row,Sequence,PBM E-score
1,AATGCCGA,-0.0292
2,CACCCGAA,0.0712
3,GTCGTCGA,0.215
4,AGCGCCGC,-0.233
5,CCGAGCAC,-0.0613
6,AGAAGGCA,-0.218
7,GAAGTCCA,-0.124
8,GCATTTAA,0.122
9,CCATCGCG,0.146
10,CACATCAG,-0.142
11,GGGTAGTA,-0.143
12,ATTAGTCG,0.122
13,AGTACGCC,0.0999
14,ACGGTCTC,0.125
15,CCTAACAC,0.0708
16,ACTCCCTA,-0.0578
17,CGGCTTAG,-0.213
18,AAGGACAA,0.0178
19,AATTTGTG,0.0205
20,AAACTTCT,0.211
21,GGCAAGCC,-0.2
22,GCGTATTA,-0.114
23,GTAGCGCA,-0.0713
24,TAGCGCAA,0.0533
25,CTGGGACA,0.0673

row,Sequence,PBM E-score
1,AACGCACT,-0.0121
2,CCGGCTAA,-0.0565
3,AATTACAA,0.139
4,AACATAAA,0.0752
5,GGGGACGA,0.135
6,AGATTTAT,0.134
7,ACAACACG,-0.043
8,CCATACGG,0.281
9,TTAGGCAA,-0.144
10,ATCACTCA,0.369
11,GGGAGCGA,-0.0269
12,GATCTAAA,0.0194
13,ACTAGAGG,-0.3
14,GATACTCA,0.156
15,GACTCGCC,-0.124
16,CCGAGTGA,0.201
17,GCTTAGCC,-0.218
18,CATCTGGG,-0.0859
19,GGGATGCA,-0.183
20,ACAATCTA,0.0679
21,ATCTACCG,0.0808
22,TGACTGAA,0.00356
23,AACTAGAG,-0.159
24,AGACACGA,0.083
25,CGCACACC,-0.197

row,Sequence,PBM E-score
1,ACGGCTTA,0.111
2,AGGGGAGG,-0.133
3,ATCCACAT,0.218
4,AAACAGTG,0.0856
5,CGCGGTGC,0.0204
6,AGCGTCCA,-0.0104
7,AATATTTG,0.13
8,CTTCCTGA,0.0112
9,CAACTTCG,-0.025
10,ACCCGACA,-0.026
11,CCTATATA,0.0431
12,CGATTGAC,0.192
13,ATACGGGA,0.253
14,AGACTCCG,-0.134
15,CAAGCTAA,-0.17
16,ACGCCAGA,-0.081
17,CGGTTGAC,0.0615
18,AGATTCTG,-0.0764
19,CATATCAG,0.0515
20,GATTGCGA,0.011
21,CTGCTAGA,0.0103
22,CAGACCCA,-0.195
23,CGTAAAGA,0.0591
24,CCCGGCCG,-0.11
25,GCGTCCTA,-0.0099

# Individual results from the list:
# CTGCTAGA | PBM E-score: 0.0103
# GAAGTCCA | PBM E-score: -0.124

# Additional records follow:

row,Sequence,PBM E-score
1,AATACTGG,-0.0655
2,CCCAGCAC,-0.127
3,GGGTACCC,-0.0568
4,CAAAGCCA,-0.0956
5,CATACATC,0.184
6,CCCGCTAA,-0.211
7,GAGGAAAC,-0.115
8,CAGTGGGG,-0.317
9,ACCAGGCC,-0.00672
10,TAAATCGA,0.14
11,ATCGAGTC,0.0688
12,CTGCTGTC,-0.149
13,AACAGATA,0.0193
14,ACCTATAA,-0.0738
15,GACTTACA,-0.0928
16,CACTAGTA,0.125
17,GCGGTGCC,-0.156
18,GATGCCTA,0.0188
19,AGTTTCGC,-0.0187
20,ACCTTAAC,0.136
21,GGTGTATA,-0.174
22,GATGCCAC,0.049
23,ACCAGCCC,-0.296
24,ATTAAGAG,-0.0703
25,AACCGTCC,-0.0986

row,Sequence,PBM E-score
1,CCGAAGCA,-0.0818
2,CAACATTG,-0.0544
3,AGCGCGGG,-0.0308
4,ATCCGACA,0.00862
5,CACCACAC,-0.143
6,CGTGACAG,0.319
7,AGACGATG,0.209
8,GACTTTCC,0.0853
9,CATGTAGA,0.0119
10,GCTGGATA,-0.0412
11,ATCTGCAC,-0.055
12,ACCGCAGC,-0.15
13,GTTTAAGA,-0.0159
14,ACGCAGAA,-0.00375
15,ACAATTGA,0.0692
16,CCCGCTCG,-0.0943
17,CTCTCAGC,-0.234
18,AGTTTGAA,0.13
19,CCACGGGC,-0.0202
20,ATACCAGG,0.0348
21,AGATTAAC,0.0782
22,CATCGATG,-0.0454
23,AAGCCAAG,-0.249
24,ATAGTACG,0.0658
25,ATTGGACA,-0.00916

row,Sequence,PBM E-score
1,CAATGATC,0.31
2,GGGCTACC,-0.186
3,CTGCGACA,0.0333
4,CACACGGA,0.0992
5,CCTTACCG,-0.0769
6,ATATTGTA,0.132
7,AGCATGCA,-0.00312
8,AGACACCT,-0.0571
9,CACTAATA,0.255
10,CTCAAGAG,-0.285
11,AGCTCTAA,-0.231
12,GTATTGTA,0.164
13,TAGGATGA,0.203
14,ATAGTTAG,0.0345
15,ATGTAGAC,-0.0712
16,CACCTCCA,0.0444
17,CACGTGCG,0.075
18,ATTAGCCG,0.0297
19,CTTGTTGC,-0.0759
20,TAACAACA,0.0694
21,ACCATAGC,-0.225
22,AAAAGCAC,0.0108
23,ACACGTTA,-0.0514
24,AAAAATTC,0.147
25,CGTATGAC,0.334

# As a working copy, part of the list above.
row,Sequence,PBM E-score
6,ATATTGTA,0.132
7,AGCATGCA,-0.00312
8,AGACACCT,-0.0571
9,CACTAATA,0.255
10,CTCAAGAG,-0.285
11,AGCTCTAA,-0.231

# Going on with the list:

row,Sequence,PBM E-score
1,CATGGGTA,-0.0994
2,ATAATCAG,0.0922
3,GAGGACCC,-0.0707
4,GATGAAGC,-0.0901
5,GGCTCGAA,-0.136
6,TCTACCCA,0.0157
7,GTCTGGTA,-0.0271
8,AAATTTGC,-0.0527
9,AAATACTA,0.0544
10,ATTGACAA,0.0759
11,TATACCGA,0.118
12,CCAGCAAA,0.0385
13,AAGCCTGC,-0.165
14,CACGTAAG,-0.0131
15,CCGCTGTC,-0.034
16,ACATTGTC,0.242
17,AAACCCAC,-0.0255
18,CGAGTCCC,-0.197
19,CAATAGGG,-0.138
20,ACCTAGCG,0.0668
21,AGGGGCGG,-0.284
22,ATAGCTGG,-0.0686
